Results deposited as PubChem BioAssay AID504791 (Drosophila RNAi Screening Center, 2011).

Aim: 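Genes of the fly required for silencing by miRNA, siRNA or endo-siRNA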 (primary screen)
Cell system: Drosophila S2-derived reporter cells
Reagents: long dsRNA against Drosophila genes, about 150-250 ng dsRNA per well (siRNA assay); about 80-120 ng (miRNA assay)
Timing: about 5 days (siRNA assay); about 4 days (miRNA assay)
Challenge: copper sulfate induction of reporters: 25 µM (siRNA assay); 200 mM stated (miRNA assay), 1-2 days before reading
Detection: 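Dual luciferase assay: Renilla to firefly signal ratio in each well, scaled to the mean ratio of its plate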
Rule for the call: 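a well was a first-pass pick when its plate-scaled ratio rose above 1.5 (siRNA assay) or 1.6 (miRNA assay), or dropped below 0.6; a gene counted only if two separate dsRNAs agreed on retest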
The screen tested about 23,000 reagents; below is a random part of those with a known target gene and a result. Of all reagents, 199 (0.86%) are marked active. 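Plate-scaled ratios behind the calls are not deposited; printed light signals are raw; many rows marked increased or decreased are still called inactive.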 Names joined by + are all predicted targets of the reagent. The record does not give: the direction of the score.

| Gene | dsRNA | stable siRNA reporter change | miRNA reporter change | stable assay Renilla, run 1 (luminescence) | stable assay firefly, run 1 (luminescence) | call |
| --- | --- | --- | --- | --- | --- | --- |
| Vps16B (Vacuolar protein sorting 16B) | DRSC15304 | – | – | 5602 | 2.93e5 | inactive |
| CG14313 | DRSC14792 | – | – | 8782 | 3.95e5 | inactive |
| RpL4 (Ribosomal protein L4) | DRSC16833 | – | – | 7426 | 3.26e5 | inactive |
| CG8630 | DRSC16441 | – | reporter ratio raised past the hit cutoff | 7841 | 3.96e5 | inactive |
| CG17085 (retired record) | DRSC02565 | – | – | 7743 | 5.28e5 | inactive |
| CG17085 (retired record) | DRSC02566 | – | – | 7202 | 4.49e5 | inactive |
| CG2493 | DRSC02707 | – | – | 11445 | 2.63e6 | inactive |
| CG3552 | DRSC10370 | – | – | 5878 | 3.12e5 | inactive |
| dmGlut (Dietary and metabolic glutamate transporter) | DRSC02835 | – | – | 20637 | 2.57e5 | inactive |
| CG13502 | DRSC04147 | – | – | 6366 | 3.51e5 | inactive |
| CG8813 | DRSC00706 | – | – | 16227 | 2.08e5 | inactive |
| Jon65Aiii (Jonah 65Aiii) | DRSC10649 | – | – | 7548 | 5.23e5 | inactive |
| Cpr12A (Cuticular protein 12A) | DRSC19722 | – | – | 5643 | 4.36e5 | inactive |
| Ssdp (Sequence-specific single-stranded DNA-binding protein) | DRSC16211 | – | – | 6678 | 3.51e5 | inactive |
| CG9143 | DRSC07338 | – | – | 9687 | 3.61e5 | inactive |
| CG13793 | DRSC02297 | – | – | 8814 | 4.93e5 | inactive |
| COX4 (Cytochrome c oxidase subunit 4) | DRSC02091 | – | – | 25608 | 2.10e6 | inactive |
| Sp7 (Serine protease 7) | DRSC15461 | – | – | 6542 | 4.35e5 | inactive |
| sls (sallimus) | DRSC08528 | – | – | 8423 | 2.96e5 | inactive |
| sls (sallimus) | DRSC08540 | – | – | 5988 | 4.36e5 | inactive |
| sls (sallimus) | DRSC08670 | – | – | 5982 | 3.70e5 | inactive |
| Ugalt (UDP-galactose transporter) | DRSC18467 | – | – | 7283 | 5.08e5 | inactive |
| CG34423 + Mthfs | DRSC04088 | – | – | 5939 | 3.44e5 | inactive |
| CG7806 | DRSC03071 | – | – | 53038 | 4.52e5 | inactive |
| CG32213 + CG12519 + 825-Oak + 1 more | DRSC09615 | – | – | 6043 | 4.22e5 | inactive |
| CR10032 (pseudo) | DRSC12499 | – | – | 6471 | 4.30e5 | inactive |
| CG6933 | DRSC10751 | – | – | 8811 | 3.73e5 | inactive |
| Nop17l (Nop17 like) | DRSC06556 | – | – | 8038 | 4.11e5 | inactive |
| CG7744 | DRSC07036 | – | – | 14612 | 5.62e5 | inactive |
| CG30222 | DRSC04125 | – | – | 6032 | 4.98e5 | inactive |
| CG30222 | DRSC04262 | – | – | 7018 | 4.60e5 | inactive |
| CG5265 | DRSC15756 | – | – | 6742 | 3.16e5 | inactive |
| CG11368 | DRSC17778 | – | – | 6527 | 3.70e5 | inactive |
| CG32733 (retired record) | DRSC17481 | – | – | 4107 | 3.40e5 | inactive |
| Mics1 (Mitochondrial morphology and cristae structure 1) | DRSC12537 | – | – | 6491 | 3.75e5 | inactive |
| Ankle2 | DRSC20105 | – | – | 7494 | 6.42e5 | inactive |
| Ankle2 | DRSC20106 | – | – | 4775 | 4.36e5 | inactive |
| Clc (Clathrin light chain) | DRSC11116 | – | – | 9935 | 3.46e5 | inactive |
| dve (defective proventriculus) | DRSC04680 | – | – | 7945 | 5.78e5 | inactive |
| CG6689 | DRSC16095 | – | – | 8871 | 4.19e5 | inactive |
| CG4230 | DRSC02740 | – | – | 8114 | 1.75e5 | inactive |
| CG14223 | DRSC19580 | – | – | 7687 | 4.86e5 | inactive |
| alpha-Est6 (alpha-Esterase-6) | DRSC12618 | – | – | 10136 | 5.50e5 | inactive |
| CG11158 | DRSC19389 | – | – | 6290 | 5.68e5 | inactive |
| ATPsynG (ATP synthase, subunit G) | DRSC02928 | – | – | 5412 | 6.73e5 | inactive |
| ND-18 (NADH dehydrogenase (ubiquinone) 18 kDa subunit) | DRSC19441 | – | – | 5202 | 3.42e5 | inactive |
| CG5388 | DRSC15789 | – | – | 7347 | 3.70e5 | inactive |
| CG14174 | DRSC10175 | – | – | 5223 | 2.64e5 | inactive |
| inaF-C | DRSC18902 | – | – | 4375 | 2.79e5 | inactive |
| CG15550 | DRSC15088 | – | – | 5734 | 3.08e5 | inactive |
| CG6052 | DRSC10574 | – | – | 7998 | 4.29e5 | inactive |
| CG33673 | DRSC00084 | – | – | 5003 | 4.65e5 | inactive |
| ths (thisbe) | DRSC06153 | – | – | 4208 | 1.67e5 | inactive |
| ths (thisbe) | DRSC23123 | – | – | 7834 | 4.16e5 | inactive |
| CG9903 | DRSC20213 | – | – | 6123 | 5.24e5 | inactive |
| Mipp1 (Multiple inositol polyphosphate phosphatase 1) | DRSC11223 | – | – | 10207 | 4.08e5 | inactive |
| CG32564 | DRSC19933 | – | – | 4547 | 4.11e5 | inactive |
| mtm (myotubularin) | DRSC03576 | – | – | 32236 | 5.18e5 | inactive |
| stj (straightjacket) | DRSC06124 | – | – | 9934 | 4.21e5 | inactive |
| CG31900 (retired record) | DRSC21835 | – | – | 4295 | 5.36e5 | inactive |
| Cyp4p1 (Cytochrome P450 4p1) | DRSC07372 | – | – | 6959 | 4.65e5 | inactive |
| ND-SGDH (NADH dehydrogenase (ubiquinone) SGDH subunit) | DRSC11102 | – | – | 6472 | 4.41e5 | inactive |
| CG11999 | DRSC12185 | – | – | 7306 | 4.04e5 | inactive |
| CG33922 | DRSC00050 | – | – | 5339 | 4.02e5 | inactive |
| gro (groucho) | DRSC16962 | – | – | 9430 | 5.43e5 | inactive |
| Pdk (Pyruvate dehydrogenase kinase) | DRSC07504 | – | – | 7730 | 4.70e5 | inactive |
| CG15456 | DRSC20527 | – | – | 6298 | 4.48e5 | inactive |
| CG17475 | DRSC15238 | – | – | 8019 | 4.51e5 | inactive |
| CG10165 | DRSC02017 | – | – | 1.56e5 | 1.46e6 | inactive |
| Dref (DNA replication-related element factor) | DRSC03319 | – | – | 42588 | 5.35e5 | inactive |
| CG42674 | DRSC10066 | reporter ratio raised past the hit cutoff | – | 3516 | 88881 | inactive |
| CG42674 | DRSC10067 | – | – | 6011 | 4.63e5 | inactive |
| CG42674 | DRSC10811 | – | – | 7219 | 4.37e5 | inactive |
| Or19b + Or19a | DRSC22604 | – | – | 4067 | 3.98e5 | inactive |
| CR11386 + CR33222 | DRSC17781 | – | – | 5322 | 3.84e5 | inactive |
| CG12320 | DRSC14498 | – | – | 8570 | 4.64e5 | inactive |
| MED6 (Mediator complex subunit 6) | DRSC16500 | – | – | 7166 | 3.61e5 | inactive |
| CG40191 | DRSC21041 | – | – | 4615 | 4.63e5 | inactive |
| CG8360 | DRSC03085 | – | – | 3767 | 4.96e5 | inactive |
| CCT8 (Chaperonin containing TCP1 subunit 8) | DRSC07130 | – | – | 8770 | 4.30e5 | inactive |
| Cox10 (Cytochrome c oxidase assembly factor 10) | DRSC02804 | – | – | 1.50e5 | 3.56e5 | inactive |
| hang (hangover) | DRSC19901 | – | – | 7183 | 3.11e5 | inactive |
| hang (hangover) | DRSC19902 | – | – | 4656 | 3.40e5 | inactive |
| hang (hangover) | DRSC23216 | reporter ratio raised past the hit cutoff | – | 4119 | 1.73e5 | inactive |
| Tango14 (Transport and Golgi organization 14) | DRSC00667 | – | – | 8192 | 4.01e5 | inactive |
| CG33017 | DRSC06573 | – | – | 7091 | 3.41e5 | inactive |
| CG33017 | DRSC06574 | – | – | 6263 | 3.16e5 | inactive |
| CG8534 | DRSC16439 | – | – | 4504 | 3.55e5 | inactive |
| TwdlP (TweedleP) | DRSC14734 | – | – | 6176 | 5.50e5 | inactive |
| Mfap1 (Microfibril-associated protein 1) | DRSC08154 | – | – | 9601 | 2.97e5 | inactive |
| CG31213 | DRSC14312 | – | – | 7898 | 4.37e5 | inactive |
| CG31213 | DRSC15647 | – | – | 8304 | 4.19e5 | inactive |
| Cbp20 (cap binding protein 20) | DRSC16601 | reporter ratio raised past the hit cutoff | reporter ratio raised past the hit cutoff | 23692 | 5.65e5 | active |
| Dsp1 (Dorsal switch protein 1) | DRSC20315 | – | reporter ratio raised past the hit cutoff | 4000 | 2.12e5 | inactive |
| Dsp1 (Dorsal switch protein 1) | DRSC23078 | – | – | 4975 | 3.38e5 | inactive |
| CG11892 | DRSC14428 | – | – | 8953 | 5.65e5 | inactive |
| CG9519 | DRSC20195 | – | – | 10390 | 5.63e5 | inactive |
| CG3124 | DRSC04339 | – | – | 4635 | 2.58e5 | inactive |
| CG3124 | DRSC23062 | – | – | 3583 | 2.79e5 | inactive |
| Alg-2 (Apoptosis-linked gene-2) | DRSC07799 | – | – | 6395 | 3.58e5 | inactive |
| CG42686 (retired record) | DRSC15247 | – | – | 4998 | 1.67e5 | inactive |
| CG42686 (retired record) | DRSC15248 | – | – | 7286 | 2.89e5 | inactive |
| CG42686 (retired record) | DRSC22995 | – | – | 3628 | 3.10e5 | inactive |
| Acadvl (Acyl-CoA dehydrogenase very long chain) | DRSC07022 | – | – | 8372 | 3.13e5 | inactive |
| CG16749 | DRSC15146 | – | – | 6323 | 5.20e5 | inactive |
| side-V (sidestep V) | DRSC04188 | – | – | 3375 | 2.95e5 | inactive |
| side-V (sidestep V) | DRSC04189 | – | – | 2424 | 2.82e5 | inactive |
| side-V (sidestep V) | DRSC22266 | – | – | 8438 | 4.15e5 | inactive |

Hits, among the entries above:
| Gene | dsRNA | stable siRNA reporter change | miRNA reporter change | stable assay Renilla, run 1 (luminescence) | stable assay firefly, run 1 (luminescence) | call |
| --- | --- | --- | --- | --- | --- | --- |
| Cbp20 (cap binding protein 20) | DRSC16601 | reporter ratio raised past the hit cutoff | reporter ratio raised past the hit cutoff | 23692 | 5.65e5 | active |
